Test results taken from PMC6017545, “Design, Synthesis, and Biological Evaluation of Novel 1,3,4-Thiadiazole Derivatives as Potential Antitumor Agents against Chronic Myelogenous Leukemia: Striking Effect of Nitrothiazole Moiety” (Molecules : A Journal of Synthetic Chemistry and Natural …, 2017).

Tests used:
Type in all cases: cell-based
Jurkat cell line = assay: MTT cytotoxicity assay, Jurkat cells; details: Homo sapiens, 48 h of incubation, mean ± SD, three independent experiments
Description: (§1) HeLa human cervical carcinoma cells were incubated in Dulbecco’s modified Eagle’s medium (DMEM) (Wako Pure Chemical Industries, Osaka, Japan) supplemented with 10% fetal bovine serum (FBS) (Equitech-Bio, Kerrville, TX, USA). […] All media were supplemented with 89 μg/mL streptomycin (Meiji Seika Pharma, Tokyo, Japan), and cells were incubated at 37 °C in a humidified atmosphere of 95% air and 5% CO2. Growing cells were plated at 2 × 10^4 cells/mL into 24-well microtiter tissue culture plates (Iwaki brand Asahi Glass Co., Chiba, Japan) and incubated for 48 h before the addition of the drugs (the optimal cell number for cytotoxicity assays was determined in preliminary experiments). […] The concentration of DMSO in the final culture medium was 1%.
(§2) The level of cellular reduction of 3-(4,5-dimethylthiazol-2-yl)-2,5-diphenyltetrazolium bromide (MTT) (Dojindo Molecular Technologies, Kumamoto, Japan) was quantified as previously described in the literature with small modifications. The tested compounds were incubated with cells in various concentrations for 48 h. The cells were then stained with MTT solution and incubated further for 4 h at 37 °C. […] The absorbance of the converted dye in the living cells was measured at a wavelength of 550 nm using a microplate spectrophotometer Infinitive M1000 (Tecan, Groding, Austria). Cell viability was calculated as a percentage of the viable control cells.

[1] = test system: K562 chronic myelogenous leukemia cell line; assay: MTT cytotoxicity assay, K562 cells; details: Homo sapiens, 48 h of incubation, mean ± SD, three independent experiments
Description: as §1, §2

MT-2 cell line = assay: MTT cytotoxicity assay, MT-2 cells; details: Homo sapiens, MT2, 48 h of incubation, mean ± SD, three independent experiments
Description: as §1, §2

[2] = test system: HeLa human cervical carcinoma cell line; assay: MTT cytotoxicity assay, HeLa cells; details: 48 h of incubation, mean ± SD, three independent experiments
Description: as §1, §2

SMILES: Cc1ccc(NC(=O)c2ccc(CN3CCN(C)CC3)cc2)cc1Nc1nccc(-c2cccnc2)n1 [Imatinib, imatinib, reference compound]
- IC50 (Jurkat cell line): 6.7 ± 2 µM
- IC50 [1]: 5 ± 2 µM
- IC50 (MT-2 cell line): 9.7 ± 3 µM
- IC50 [2]: 15.2 ± 6 µM
